Reference: the supplement of paper PMC10849652
The list shows a part of the results.

Protein sequences, listed by entry. Tags and fused reporters are not part of them. Lines headed by an entry give the natural chain unless they say otherwise; changes in a name come on top.
UniProt Q9NS69: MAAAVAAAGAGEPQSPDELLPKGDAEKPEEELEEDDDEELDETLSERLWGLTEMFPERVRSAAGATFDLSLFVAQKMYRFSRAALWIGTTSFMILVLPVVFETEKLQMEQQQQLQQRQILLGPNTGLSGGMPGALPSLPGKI
UniProt O43399: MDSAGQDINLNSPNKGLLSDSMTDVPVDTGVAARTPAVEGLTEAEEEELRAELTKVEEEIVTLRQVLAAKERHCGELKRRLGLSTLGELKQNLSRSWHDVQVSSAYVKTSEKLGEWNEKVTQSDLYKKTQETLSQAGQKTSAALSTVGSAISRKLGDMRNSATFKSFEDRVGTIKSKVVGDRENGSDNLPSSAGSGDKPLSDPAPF
UniProt Q9NWD8: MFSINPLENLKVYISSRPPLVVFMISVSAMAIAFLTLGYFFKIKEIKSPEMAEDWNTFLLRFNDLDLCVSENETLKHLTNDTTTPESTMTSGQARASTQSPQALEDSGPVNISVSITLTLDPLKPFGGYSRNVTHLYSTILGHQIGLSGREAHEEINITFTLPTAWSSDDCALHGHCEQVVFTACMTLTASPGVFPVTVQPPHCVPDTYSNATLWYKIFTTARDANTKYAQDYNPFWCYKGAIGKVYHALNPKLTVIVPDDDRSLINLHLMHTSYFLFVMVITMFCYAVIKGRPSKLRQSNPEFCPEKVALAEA
UniProt Q16890: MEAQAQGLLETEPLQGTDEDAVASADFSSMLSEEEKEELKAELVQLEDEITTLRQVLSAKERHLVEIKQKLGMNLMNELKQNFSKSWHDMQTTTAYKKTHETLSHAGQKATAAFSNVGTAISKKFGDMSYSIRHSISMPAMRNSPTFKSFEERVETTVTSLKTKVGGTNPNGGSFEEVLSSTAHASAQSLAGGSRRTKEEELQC
UniProt Q96K49: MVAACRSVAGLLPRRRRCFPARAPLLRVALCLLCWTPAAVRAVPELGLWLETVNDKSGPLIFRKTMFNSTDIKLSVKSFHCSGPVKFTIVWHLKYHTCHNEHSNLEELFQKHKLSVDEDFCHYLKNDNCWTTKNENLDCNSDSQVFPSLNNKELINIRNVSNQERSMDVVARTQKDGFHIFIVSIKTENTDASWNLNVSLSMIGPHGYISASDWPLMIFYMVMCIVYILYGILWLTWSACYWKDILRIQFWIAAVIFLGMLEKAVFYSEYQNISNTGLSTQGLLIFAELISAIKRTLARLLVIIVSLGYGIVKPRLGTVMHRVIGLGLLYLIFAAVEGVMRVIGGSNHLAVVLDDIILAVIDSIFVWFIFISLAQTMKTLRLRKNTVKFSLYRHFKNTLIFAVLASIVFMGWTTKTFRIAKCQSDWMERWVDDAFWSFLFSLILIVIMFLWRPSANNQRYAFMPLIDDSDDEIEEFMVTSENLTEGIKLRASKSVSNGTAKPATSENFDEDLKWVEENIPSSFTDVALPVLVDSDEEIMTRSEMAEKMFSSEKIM

What was measured:
Assay in all cases: log2 fold change, soluble protein after heating vs DMSO (PISA); higher = thermal stabilisation; K562 lysate, 10 uM; active = over 0.2 and 3.5 SD of the protein, either way, in both replicates (recomputed)
[1] = compound: NCC(=O)Nc1ccc(-n2nc(C(F)(F)F)cc2-c2ccc3c(ccc4ccccc43)c2)cc1
How it was run: (§1)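 Dounce homogenisation of K562 pellets in PBS pH 7.4 with 1 mM MgCl2 produced a crude extract, used at 1 mg/mL protein. Exposure to 10 μM compound lasted 30 min, and aliquots were then heated for 3 min across 48°C-58°C, pooled and brought to 0.5% NP-40 at 4°C. The supernatant after 21,000xg for 90 min was quantified by TMTpro 16plex LC-MS/MS with channel sums equalised. Duplicate values are given as log-two fold change in thermal stability relative to solvent controls.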

vorinostat = compound: O=C(CCCCCCC(=O)Nc1ccccc1)NO [vorinostat]
How it was run: as §1

silmitasertib = compound: O=C(O)c1ccc2c(c1)nc(Nc1cccc(Cl)c1)c1ccncc12 [silmitasertib]
How it was run: as §1

[2] = compound: O=C1NC(=O)C(c2cnc3ccccn23)=C1c1cn2c3c(cc(F)cc13)CN(C(=O)N1CCCCC1)CC2
How it was run: as §1

entospletinib = compound: c1cn2cc(-c3ccc4cn[nH]c4c3)nc(Nc3ccc(N4CCOCC4)cc3)c2n1 [entospletinib]
How it was run: as §1

Measured: log2 fold change

TOMM22 (UniProt Q9NS69)
inactive: [1] -0.025 | vorinostat 0.181 | silmitasertib -0.055 | [2] 0.005 | entospletinib -0.068

TPD52L2 isoform 7 (UniProt O43399)
inactive: [1] -0.043 | vorinostat 0.148 | silmitasertib -0.044 | [2] -0.027 | entospletinib -0.016

TMEM248 (UniProt Q9NWD8)
inactive: [1] -0.081 | vorinostat 0.06 | silmitasertib 0.039 | [2] -0.014 | entospletinib -0.025

TPD52L1 (UniProt Q16890)
inactive: [1] 0.014 | vorinostat 0.185 | silmitasertib -0.049 | [2] 0.02 | entospletinib -0.002

TMEM87B (UniProt Q96K49)
inactive: [1] -0.024 | vorinostat 0.018 | silmitasertib 0.026 | [2] -0.037 | entospletinib -0.097
